Experimental data: PubChem BioAssay AID686943 (Drosophila RNAi Screening Center, 2013)
The deposit covers about 23,000 reagents; shown is a random part of those that have a named target and a result. 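Extra replicates exist only for a retested subset of genes; insulin dose and duration not given; both raised and lowered dpERK matter.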 The numbers tell different reagents against one gene apart. Names joined by + are all predicted targets of the reagent. Reagent sequences are not shown. The record does not give: the amount of reagent, the time to read-out.

- Screen: 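Fly genes whose loss alters ERK activation after insulin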 (primary screen)
- Cell system: Drosophila S2R+ haemocyte-like cells expressing YFP-tagged ERK (Rolled)
- Reagents: long dsRNA against Drosophila genes
- Conditions: insulin stimulation versus unstimulated cells; dose and duration not given
- Detection: 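Per-plate z-scores of phospho-ERK immunostaining normalised to YFP-tagged ERK, measured with and without insulin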
- Reading the numbers: replicate 1, z-score of dpERK with insulin and replicate 2, z-score of dpERK with insulin: higher = more active ERK per ERK-YFP after insulin; replicate 1, z-score of dpERK under basal conditions: higher = more basal active ERK per ERK-YFP; replicate 1, z-score of ERK-YFP with insulin: higher = more YFP-tagged ERK signal

Gene	reagent no.	replicate 1, z-score of dpERK with insulin	replicate 2, z-score of dpERK with insulin	replicate 1, z-score of dpERK under basal conditions	replicate 1, z-score of ERK-YFP with insulin
CG33325 (GeneID 2768664)	1	-0.56	0.34	0.91	1.06
Ref2 (GeneID 34667)	1	0.12	0.8	1.38	0.05
meigo (GeneID 42510)	1	1.09	0	0.47	-1.16
Snap29 (GeneID 37774)	1	0.16	0.91	0.59	1.27
Egfr (GeneID 37455)	1	0.31	-0.56	1.66	-0.18
Egfr (GeneID 37455)	2	-0.03	-0.07	0.66	-0.27
Sems (GeneID 40315)	1	0.13	-0.14	-0.46	0
Npc2c (GeneID 41233)	1	-0.25	0.7	-0.05	-0.38
CG9962 (GeneID 33448)	1	-1.27	-0.39	-0.84	1.3
Burs (GeneID 42560)	1	0.31	0.03	0.41	0.74
Pkn + Tsen15	1	0.8	0.39	1.44	1.94

Ordered by “replicate 1, z-score of dpERK under basal conditions” (ascending): some entries from above
Gene	reagent no.	replicate 1, z-score of dpERK with insulin	replicate 2, z-score of dpERK with insulin	replicate 1, z-score of dpERK under basal conditions	replicate 1, z-score of ERK-YFP with insulin
Sems (GeneID 40315)	1	0.13	-0.14	-0.46	0
Egfr (GeneID 37455)	2	-0.03	-0.07	0.66	-0.27
Egfr (GeneID 37455)	1	0.31	-0.56	1.66	-0.18

The list goes on.
Gene	reagent no.	replicate 1, z-score of dpERK with insulin	replicate 2, z-score of dpERK with insulin	replicate 1, z-score of dpERK under basal conditions	replicate 1, z-score of ERK-YFP with insulin
CG43386 (GeneID 31929)	1	-0.38	-0.03	-0.35	0.21
CG18304 (GeneID 33969)	1	0.73	0.45	0.55	0.53
CG11593 (GeneID 38477)	1	0.94	0.69	0.68	-0.38
CG2574 (GeneID 32190)	1	0.73	0.4	3.17	-0.17
CG13871 (GeneID 37303)	1	-0.75	-1.14	0.24	-0.39
CG9263 (GeneID 34770)	1	1.37	0.38	0.17	0.07
CG18659 (GeneID 35929)	1	0.02	0.01	1.49	-0.01
CG6765 (GeneID 38971)	1	0.38	0.66	-0.3	0.37
swi2 (GeneID 37010)	1	-0.21	-0.63	1.17	0.27
Paip1 (GeneID 36913)	1	-2.92	-3.11	-0.25	0.11
Uch-L5R (GeneID 32173)	1	-1.03	-0.59	-0.23	-0.83
CG5342 (GeneID 41389)	1	0.14	0.26	0.35	-0.34
